{"source": "PubChem BioAssay AID504834", "about": "(National Center for Advancing Translational Sciences (NCATS), 2011)", "note": "Hit rate of the full screen: of about 320,000 compounds, about 22,000 (6.9%) were called active. The shares of active, inactive and inconclusive entries below differ from those in the screen. The call rests on the fitted dose curve; in most records, active means well fitted inhibition curve with a large enough effect; inconclusive means small, poorly fitted or top-dose-only effect, or another doubt; inactive means no such curve, though single readings can be large or run the other way. Where the call is inconclusive, the potency comes from a doubtful curve fit. Potency means the concentration at half of the fitted maximal effect.", "data": [{"assay": "Primary qHTS for delayed death inhibitors of the malarial parasite plastid, 96 hour incubation", "conditions": "P. falciparum luciferase reporter growth; series mostly up to 28.7 µM", "summary_of_the_method": "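Cell-based qHTS: luciferase-tagged P. falciparum in erythrocytes (2% hematocrit, 0.05% parasitemia final) incubated with compounds for 96 hours, 37 C, 5% CO2; luciferase detection reagent then added and luminescence measured.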", "values": [{"smiles": "CCOC(CNC(=O)c1ccc2c(c1)ncn2-c1ccccc1OC)OCC", "Potency": "inactive"}, {"smiles": "CCOc1cccc(/C=N/N2C(=O)CSC2=S)c1O", "Potency": "inconclusive: 2.62 µM [inhibitor, full curve, poor fit]"}, {"smiles": "COc1ccccc1C(=O)Nc1ccc(NC(=O)c2ccco2)cn1", "Potency": "inactive"}, {"smiles": "O=C(NCc1cccnc1)c1cc(Sc2ccc(F)cc2F)nc2ccccc12", "Potency": "inactive"}, {"smiles": "O=C(O)c1ccccc1OC(=O)C12CC3CC(CC(C3)C1)C2", "Potency": "inactive"}, {"smiles": "Cc1ccc(S(=O)(=O)NC23CC4CC(CC(C4)C2)C3)cc1", "Potency": "inconclusive: 8.28 µM [inhibitor, partial curve, poor fit]"}, {"smiles": "Cc1cccc(Nc2ccc(C(=O)N3CCOCC3)cn2)c1", "Potency": "inconclusive: 18.5 µM [inhibitor, single point]"}, {"smiles": "O=C(CCCCCN1C(=O)c2ccccc2C1=O)NCc1ccccn1", "Potency": "inconclusive: 18.5 µM [inhibitor, single point]"}, {"smiles": "COCCn1c(SCc2ccccc2)nc2c1c(=O)[nH]c(=O)n2C", "Potency": "inconclusive: 2.94 µM [inhibitor, partial curve, poor fit]"}, {"smiles": "O=Cc1cn(-c2ccccc2)nc1-c1ccc(F)cc1", "Potency": "inconclusive: 14.7 µM [inhibitor, partial curve]"}, {"smiles": "COc1ccc(OCCCC(=O)Nc2ccc(OC)c(S(=O)(=O)N3CCOCC3)c2)cc1", "Potency": "inconclusive: 1.31 µM [inhibitor, partial curve, poor fit]"}, {"smiles": "CC(C)NC(=S)NNc1nc2ccccc2s1", "Potency": "inconclusive: 18.5 µM [inhibitor, single point]"}, {"smiles": "COc1ccc(CCNC(=O)C2CCCN(S(C)(=O)=O)C2)cc1OC", "note": "(configuration not stated)", "Potency": "inconclusive: 4.15 µM [inhibitor, single point]"}, {"smiles": "CCNC(=S)N(CCc1c(C)[nH]c2ccc(F)cc12)Cc1cccnc1", "Potency": "inactive"}, {"smiles": "COc1ccc(Cn2c(=O)[nH]c3cc(C(=O)NC4CCN(Cc5ccccc5)CC4)ccc32)cc1", "Potency": "inconclusive: 10.4 µM [inhibitor, single point]"}, {"smiles": "OCCNC(=S)Nc1cc(Cl)cc(Cl)c1", "Potency": "inconclusive: 0.329 µM [inhibitor, partial curve, poor fit]"}, {"smiles": "COC(=O)c1cc(NC(=O)C2COc3ccccc3O2)ccc1Cl", "note": "(configuration not stated)", "Potency": "inconclusive: 10.4 µM [inhibitor, single point]"}, {"smiles": "C=C(C)[C@@H]1CC=C(CN2CCN(Cc3ccccc3)CC2)CC1", "Potency": "inconclusive: 18.5 µM [inhibitor, single point]"}, {"smiles": "COc1ccccc1C(=O)NNS(=O)(=O)c1ccc(F)cc1", "Potency": "active: 4.15 µM"}, {"smiles": "COc1cc(C(=O)N2CCc3ccccc32)c([N+](=O)[O-])cc1OC", "Potency": "inactive"}, {"smiles": "COc1cccc(NC(=O)C2CCCN(S(C)(=O)=O)C2)c1", "note": "(configuration not stated)", "Potency": "inactive"}, {"smiles": "CC(NCc1ccc(-c2ccccc2)cc1)C(O)c1ccccc1", "note": "(configuration not stated)", "Potency": "active: 2.33 µM"}, {"smiles": "COc1cc2c(cc1OC)C(COc1ccccc1OC)N(C(=O)C(C)C)CC2", "note": "(configuration not stated)", "Potency": "active: 10.4 µM"}, {"smiles": "O=C(Oc1cccc(C(=S)N2CCOCC2)c1)c1ccc([N+](=O)[O-])cc1[N+](=O)[O-]", "Potency": "inactive"}, {"smiles": "O=C(CSc1nc2sc3c(c2c(=O)n1-c1ccccc1)CCCC3)N/N=C/c1ccc(C(=O)O)cc1", "Potency": "inconclusive: 9.28 µM [inhibitor, partial curve]"}, {"smiles": "CC(=O)Nc1ccc(NC(=O)C(C)OC(=O)/C=C/c2cn(-c3ccccc3)nc2-c2cccnc2)cc1", "note": "(configuration not stated)", "Potency": "inactive"}, {"smiles": "CS(=O)(=O)c1ccc(Cl)c(C(=O)Nc2ccc3nc(N4CCOCC4)sc3c2)c1", "Potency": "inconclusive: 18.5 µM [inhibitor, single point]"}, {"smiles": "CC(=O)Nc1ccc(-c2nnn(CC(=O)Nc3ccc4c(c3)OCO4)n2)cc1Cl", "Potency": "inconclusive: 10.4 µM [inhibitor, single point]"}, {"smiles": "COC(=O)c1cc(COC(=O)c2ccc(OC)c(S(=O)(=O)N3CCCC3)c2)oc1C", "Potency": "inactive"}, {"smiles": "CN(C)C(=S)NC(=O)C12CC3(C)CC(C)(CC(C)(C3)C1)C2", "Potency": "inconclusive: 5.86 µM [inhibitor, partial curve]"}, {"smiles": "Cc1ccc(C2=NN(C(=O)CCC(=O)O)C(c3cccs3)C2)cc1", "note": "(configuration not stated)", "Potency": "inconclusive: 23.3 µM [inhibitor, partial curve, poor fit]"}, {"smiles": "O=C(NCc1ccccc1)c1c[nH]c2ccc(F)cc2c1=O", "Potency": "inconclusive: 9.28 µM [inhibitor, partial curve]"}, {"smiles": "CC(=O)c1ccc(OCCCC(=O)OCC(=O)N2CCN(c3ccccc3)CC2)cc1", "Potency": "active: 9.28 µM"}, {"smiles": "COc1cc2c(cc1NC(=O)c1ccccc1F)CCCC2", "Potency": "inactive"}, {"smiles": "O=S(=O)(NCc1ccccc1)c1ccc(Cl)cc1", "Potency": "inconclusive: 3.7 µM [inhibitor, single point]"}, {"smiles": "Cc1cc(C)cc(OCc2nnc(SCC(=O)N3CCCCC3)o2)c1", "Potency": "inactive"}, {"smiles": "CCOC(=O)Cc1c(Cl)c2ccccc2[nH]c1=O", "Potency": "inactive"}, {"smiles": "COc1ccc(N2CCN(C(=O)CSc3nc4[nH]ncc4c(=O)n3-c3ccc(Br)cc3)CC2)cc1", "Potency": "inactive"}, {"smiles": "CCCCNC(=O)c1onc(CCl)c1C(=O)OC", "Potency": "inconclusive: 0.37 µM [inhibitor, full curve, poor fit]"}, {"smiles": "O=c1cccc2n1CC1CC2CN(S(=O)(=O)c2cc(Cl)ccc2Cl)C1", "note": "(configuration not stated)", "Potency": "inactive"}, {"smiles": "COc1ccc(OC)c(C(=O)NC(CC(N)=O)c2ccc(NC(C)C)c([N+](=O)[O-])c2)c1", "note": "(configuration not stated)", "Potency": "inactive"}, {"smiles": "Cc1cccc(CNS(=O)(=O)c2csc(C(N)=O)c2)c1", "Potency": "inactive"}, {"smiles": "COc1cc(CNn2c(C)n[nH]c2=S)cc(Cl)c1OCc1ccccc1", "Potency": "inconclusive: 16.5 µM [inhibitor, partial curve, poor fit]"}, {"smiles": "O=S(=O)(Nc1cccc(-c2ccc(N3CCCCCC3)nn2)c1)c1ccc(F)cc1", "Potency": "inactive"}, {"smiles": "COc1ccc(N2C(=O)CSC2c2ccc([N+](=O)[O-])cc2)cc1", "note": "(configuration not stated)", "Potency": "active: 5.22 µM"}, {"smiles": "Cc1ccc(NC(=O)c2c3c(nc4ccccc24)CCC3)cc1", "Potency": "inactive"}, {"smiles": "CC1OC(Oc2ccc3ccc(=O)oc3c2-c2c(O)ccc3cc(Oc4ccc5ccc(=O)oc5c4)c(=O)oc23)C(O)C(O)C1O", "note": "(configuration not stated)", "Potency": "inconclusive: 9.28 µM [inhibitor, partial curve, poor fit]"}]}]}
